Source: the supplement of paper PMC8728848
Some of the results follow.

Key:
Assay in all cases: glycan array binding signal (z-score within array); higher = stronger binding
Settings in all cases: glycan notation: IUPAC condensed, linker removed
[1] = target: Neu5Ac(a2-6)GlcNAc(b1-4)GlcNAc(b1-4)GlcNAc
Procedure, shortened: (§1)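 Glycan array binding is given as a within-array Z-score, which can be read as non-binding when negative. The arrays, 3228 of them, came from the Consortium for Functional Glycomics database and were retained only where the protein sequence was available. Z-scores were averaged across arrays of the same protein sequence at different concentrations or buffers and across linkers.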

Neu5Ac(a2-8)Neu5Ac = target: Neu5Ac(a2-8)Neu5Ac
Procedure, shortened: as §1

[2] = target: Neu5Ac(a2-8)Neu5Ac(a2-3)Gal(b1-3)GalNAc(b1-4)[Neu5Ac(a2-3)]Gal(b1-4)Glc
Procedure, shortened: as §1

[3] = target: Neu5Ac(a2-8)Neu5Ac(a2-3)Gal(b1-3)GalNAc(b1-4)[Neu5Ac(a2-8)Neu5Ac(a2-3)]Gal(b1-4)Glc
Procedure, shortened: as §1

[4] = target: Neu5Ac(a2-8)Neu5Ac(a2-3)Gal(b1-4)Glc
Procedure, shortened: as §1

[5] = target: Neu5Ac(a2-8)Neu5Ac(a2-3)Gal(b1-4)GlcNAc
Procedure, shortened: as §1

[6] = target: Neu5Ac(a2-8)Neu5Ac(a2-3)[Gal(b1-3)GalNAc(b1-4)]Gal(b1-4)Glc
Procedure, shortened: as §1

[7] = target: Neu5Ac(a2-8)Neu5Ac(a2-3)[GalNAc(b1-4)]Gal(b1-4)Glc
Procedure, shortened: as §1

[8] = target: Neu5Ac(a2-8)Neu5Ac(a2-8)Neu5Ac
Procedure, shortened: as §1

[9] = target: Neu5Ac(a2-8)Neu5Ac(a2-8)Neu5Ac(a2-3)Gal(b1-4)Glc
Procedure, shortened: as §1

[10] = target: Neu5Ac(a2-8)Neu5Ac(a2-8)Neu5Ac(a2-3)[Gal(b1-3)GalNAc(b1-4)]Gal(b1-4)Glc
Procedure, shortened: as §1

[11] = target: Neu5Ac(a2-8)Neu5Ac(a2-8)Neu5Ac(a2-3)[GalNAc(b1-4)]Gal(b1-4)Glc
Procedure, shortened: as §1

[12] = target: Neu5Ac(a2-8)Neu5Ac(a2-8)Neu5Ac(a2-8)Neu5Ac(a2-3)[GalNAc(b1-4)]Gal(b1-4)Glc
Procedure, shortened: as §1

[13] = target: Neu5Ac(a2-8)Neu5Gc(a2-3)Gal(b1-4)GlcNAc
Procedure, shortened: as §1

[14] = target: Neu5Ac(b2-6)Gal(b1-4)GlcNAc
Procedure, shortened: as §1

Neu5Ac(b2-6)GalNAc = target: Neu5Ac(b2-6)GalNAc
Procedure, shortened: as §1

[15] = target: Neu5Ac9Ac(a2-3)Gal(b1-3)GlcNAc
Procedure, shortened: as §1

[16] = target: Neu5Ac9Ac(a2-3)Gal(b1-4)GlcNAc
Procedure, shortened: as §1

[17] = target: Neu5Ac9Ac(a2-6)Gal(b1-4)GlcNAc
Procedure, shortened: as §1

[18] = target: Neu5Gc(a2-3)Gal(b1-3)GlcNAc
Procedure, shortened: as §1

[19] = target: Neu5Gc(a2-3)Gal(b1-3)[Fuc(a1-4)]GlcNAc
Procedure, shortened: as §1

Neu5Gc(a2-3)Gal(b1-4)Glc = target: Neu5Gc(a2-3)Gal(b1-4)Glc
Procedure, shortened: as §1

[20] = target: Neu5Gc(a2-3)Gal(b1-4)GlcNAc
Procedure, shortened: as §1

[21] = target: Neu5Gc(a2-3)Gal(b1-4)GlcNAc(b1-3)Gal(b1-4)GlcNAc(b1-2)Man(a1-3)[Neu5Gc(a2-3)Gal(b1-4)GlcNAc(b1-3)Gal(b1-4)GlcNAc(b1-2)Man(a1-6)]Man(b1-4)GlcNAc(b1-4)GlcNAc
Procedure, shortened: as §1

[22] = target: Neu5Gc(a2-3)Gal(b1-4)[Fuc(a1-3)]GlcNAc
Procedure, shortened: as §1

[23] = target: Neu5Gc(a2-6)Gal(b1-4)GlcNAc
Procedure, shortened: as §1

Neu5Gc(a2-6)GalNAc = target: Neu5Gc(a2-6)GalNAc
Procedure, shortened: as §1

[24] = target: Neu5Gc(a2-8)Neu5Ac(a2-3)Gal(b1-4)GlcNAc
Procedure, shortened: as §1

[25] = target: Neu5Gc(a2-8)Neu5Gc(a2-3)Gal(b1-4)GlcNAc
Procedure, shortened: as §1

[26] = target: Neu5Gc(a2-8)Neu5Gc(a2-3)Gal(b1-4)GlcNAc(b1-3)Gal(b1-4)GlcNAc
Procedure, shortened: as §1

[27] = target: Neu5Gc(a2-8)Neu5Gc(a2-6)Gal(b1-4)GlcNAc
Procedure, shortened: as §1

[28] = target: Neu5Gc(b2-6)Gal(b1-4)GlcNAc
Procedure, shortened: as §1

B1: Clec12b (Mus musculus), Q149M0 (protein)
chain: MSDEVTYATLMLQDSARVRGNQDGNNLRKEGHPAQSSLWRGAALSLMTLCLVLVTGLVTLATMFLQVSNDINSDSEKLSQLQKSIHPQQDNLSESLNSSRKSLTEESLQSQISALLERQEQMATKLCKEFLIHASDHKCNPCPKTWQWYGNSCYYFSINEEKSWSDSRKDCIDKNATLVKIDSTEERDLLQSQLSLTFSFFWLGLSWNSSGRNWLWEDGSFPPPTLFSDKELASFNGSRDCAYFERGNIYASRCSAEIPWICEKTASLVKTEDLD
- glycan array binding signal (z-score) [1]: -0.54
- glycan array binding signal (z-score) (Neu5Ac(a2-8)Neu5Ac): -0.08
- glycan array binding signal (z-score) [2]: -0.305
- glycan array binding signal (z-score) [3]: -0.189
- glycan array binding signal (z-score) [4]: 0.111
- glycan array binding signal (z-score) [5]: -0.331
- glycan array binding signal (z-score) [6]: 0.807
- glycan array binding signal (z-score) [7]: -0.577
- glycan array binding signal (z-score) [8]: -0.156
- glycan array binding signal (z-score) [9]: -0.718
- glycan array binding signal (z-score) [10]: 0.576
- glycan array binding signal (z-score) [11]: 0.051
- glycan array binding signal (z-score) [12]: 0.021
- glycan array binding signal (z-score) [13]: -0.719
- glycan array binding signal (z-score) [14]: 2.48
- glycan array binding signal (z-score) (Neu5Ac(b2-6)GalNAc): 0.492
- glycan array binding signal (z-score) [15]: -0.241
- glycan array binding signal (z-score) [16]: -0.437
- glycan array binding signal (z-score) [17]: -0.236
- glycan array binding signal (z-score) [18]: -0.447
- glycan array binding signal (z-score) [19]: -0.403
- glycan array binding signal (z-score) (Neu5Gc(a2-3)Gal(b1-4)Glc): -0.107
- glycan array binding signal (z-score) [20]: -0.572
- glycan array binding signal (z-score) [21]: -0.195
- glycan array binding signal (z-score) [22]: -0.357
- glycan array binding signal (z-score) [23]: -0.541
- glycan array binding signal (z-score) (Neu5Gc(a2-6)GalNAc): -0.256
- glycan array binding signal (z-score) [24]: -0.219
- glycan array binding signal (z-score) [25]: 0.915
- glycan array binding signal (z-score) [26]: -0.714
- glycan array binding signal (z-score) [27]: -0.288
- glycan array binding signal (z-score) [28]: -0.185
